The supplement of paper PMC12764529
± gives the half width of the 95% confidence interval. The two proteases of the assay disagree for many of these sequences.

How the values were obtained:
[1] = folding stability dG unfold from trypsin proteolysis; higher = more stable
How it was run: (§1)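 Mini-proteins designed to be under 80 residues and free of cysteine were carried in a PA-tagged cDNA display construct and digested with trypsin and with chymotrypsin. Each protease was applied at 11 threefold-diluted concentrations, alongside a no-protease condition, before sequencing. K50 came from Bayesian fitting of the sequencing counts, and unfolding free energy was obtained by comparing it with a sequence-predicted unfolded-state K50 and a shared folded-state K50, for each protease separately or for both together. Designs were retained only if their AlphaFold2 dimer inter-PAE exceeded 15.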

[2] = folding stability dG unfold from chymotrypsin proteolysis; higher = more stable
How it was run: as §1

[3] = folding stability dG unfold (combined trypsin and chymotrypsin); higher = more stable
How it was run: as §1

Sequence	folding stability dG unfold [1] [kcal/mol]	folding stability dG unfold [2] [kcal/mol]	folding stability dG unfold [3] [kcal/mol]
SKMIEIKPGEKIEITIEGADEVKITIFVNGKKKEITVKAGEKIEIELPEDVKEVYIIIKDKNGKEKIIKLSA [r9_143_TrROS_Hall]	2.03 ± 0.084	4.06 ± 0.098	3.73 ± 0.12
SAGGSAGGKIKPGEKIEVTLKIVNKETGEEKTIKAEVEVVDGKLYIRFPDGSIQEIDLKDIEIESAGGSAGG [r6_436_TrROS_Hall]	1.24 ± 0.03	3.53 ± 0.086	3.09 ± 0.074
SAGGAEELARALRDAGYTVTVERLADGTLKLTITLPPPPPVRVERAPPPPRTTTTKTTTTTTTTTTTSAGGS [r16_613_TrROS_Hall]	-0.473 ± 0.15	2.48 ± 0.047	1.91 ± 0.08
SAGGSAETVTITLKLKDGSTITITYDKETNTVTITIEKDGKKITVTIKMTPEEVEKLIKELLKKLKSAGGSA [r15_662_TrROS_Hall]	2.92 ± 0.14	5.21 ± 0.18	5.05 ± 0.24
SAGGSAMTKTIVDPNLSIEEAKKKLEELLKEEGKEPVKVTTEEDPETGTYTITVELPNGEKVVFRNSAGGSA [r15_958_JUSTAS]	2.02 ± 0.14	4.03 ± 0.067	3.55 ± 0.12
SAGGSAKKKKKKPVVKEVTLVIKIKVKSEEEAKKLAEELKKLFPNAKVELVEKKKDGYYVIKITFKSAGGSA [r15_387_TrROS_Hall]	1.59 ± 0.083	3.6 ± 0.15	3.19 ± 0.3
SAGGSMTLRLRFRVRVRVRGRRPDGSLFEFELEVEIELEVEVEPPEPLPPLTPEEAAKIIGNPELVSAGGSA [r2_340_TrMRF]	3.8 ± 0.11	6.35 ± 0.39	> 6
SAGGMTAEELKKAIEENPGETYKVTIYRREKGPDGKVKKEEITVTKEELDALLASLPPGAVVTVEKVSAGGS [r16_116_TrROS_Hall]	1.54 ± 0.041	4.19 ± 0.073	3.67 ± 0.082
SAGGSAGGSAGGSGLPDEPVVTVTTETSIVEEGDGPVTVTTTTTTYPDGSVSTTLTTVASAGGSAGGSAGGS [r4_433_JUSTAS]	2.25 ± 0.087	-0.0939 ± 0.086	1.32 ± 0.13
SAGGSAGGSAGPPVPVKAEITYTKEGNKYTVTITTSSPDGSTTTTTTEMTPEEIEKIKKNSAGGSAGGSAGG [r17_337_JUSTAS]	-0.418 ± 0.17	1.77 ± 0.06	1.41 ± 0.22
GYTITSEVEEFEDPNSDAKYTKVTIPVVDGDPEVAREAAEEIAKERFGPGATLDIKYDPETGTVTATFTVAS [r1_273_JUSTAS]	0.511 ± 0.026	0.379 ± 0.1	0.563 ± 0.081
SAGGSAMTVTVELEFEPVTVTDADGKEREVPVRVKVTAKVELVRDPETGELVERVEVTSIEIEVEPSAGGSA [r15_884_TrROS_Hall]	1.73 ± 0.069	1.92 ± 0.079	1.87 ± 0.15
SAGGSAGGSAGWFLIIKFDIGLEPEYDENGKPKGMKLEVRVEIEPIPPPPDPGDPEYKENSAGGSAGGSAGG [r11_131_TrROS]	2.43 ± 0.14	4.8 ± 0.26	4.36 ± 0.19
MEKVLILAKIKLKGPDGEEAEIDFAVEISPEEATPELLKKVREEAEEIAEALKEKGYEVELEVEVVKLGEES [r1_221_TrMRF]	3.62 ± 0.48	2.88 ± 0.24	3.25 ± 0.65
SMTISIPGGITITIEPKPNSYTLTVSFPDGSTVTRPVDPSDLTSAIKAVIREALRRADPNITEEEIEKLLSA [r9_634_JUSTAS]	4.39 ± 0.1	6.07 ± 0.17	> 6
SAGGSAKKKGKKKKIYIVKIEVTNPNGEKKTLTLEFESEEEAEKAAKELAKKGYKVKIELIKKEEISAGGSA [r15_906_TrROS_Hall]	1.49 ± 0.074	4.36 ± 0.38	3.5 ± 0.6
MEELVEKAKAEGYEYEVRPVEVGSLEEAKKLAEELEERNNAKVVLVFDPATGLPVELVIIKPGKKSKKIPGS [r1_179_JUSTAS]	-0.58 ± 0.22	2.56 ± 0.056	2 ± 0.09
SAGGKTISIEFYMPPGEPPPSIEEIAKELFPGYKDIKIKNIEIEDVEPDPDNGMKYVRVSFTIEVEPPSAGG [r13_10_TrROS]	3.25 ± 0.27	3.42 ± 0.23	3.39 ± 0.25
SAGGSAGGSAGGAAPPGIEVRVFATRTPDGTVRFVAVVTLPDGTPFVFEATLPVHPDAVFSAGGSAGGSAGG [r7_610_TrMRF]	-0.358 ± 0.51	2.86 ± 0.038	2.27 ± 0.12
SAGGSAGGSMIIIVKLPNGEELPIEVEGEEEAEKIAEEIVKALIEKGITPVSVEIRPIKPEEGSAGGSAGGS [r12_301_TrMRF]	3.13 ± 0.13	2.28 ± 0.17	2.97 ± 0.21

Some of the entries above, set out differently:

| Sequence | folding stability dG unfold [1] [kcal/mol] | folding stability dG unfold [2] [kcal/mol] | folding stability dG unfold [3] [kcal/mol] |
| --- | --- | --- | --- |
| SAGGSAGGKIKPGEKIEVTLKIVNKETGEEKTIKAEVEVVDGKLYIRFPDGSIQEIDLKDIEIESAGGSAGG [r6_436_TrROS_Hall] | 1.24 ± 0.03 | 3.53 ± 0.086 | 3.09 ± 0.074 |
| SAGGAEELARALRDAGYTVTVERLADGTLKLTITLPPPPPVRVERAPPPPRTTTTKTTTTTTTTTTTSAGGS [r16_613_TrROS_Hall] | -0.473 ± 0.15 | 2.48 ± 0.047 | 1.91 ± 0.08 |
